The source of these data is paper PMC11696143, “A higher order PUF complex is central to regulation of C. elegans germline stem cells” (Nature Communications, 2024).

Numbering of substitutions follows the chain as printed. For part of these data: Tags and fusion partners may be left off the protein sequences shown. Construct, isoform or probe ends are uncertain for at least one entry. For part of these data: At least one verdict rests on a figure or table, not on a statement of the authors.

Data set [1] addresses T1, FBF-2 RBD (Caenorhabditis elegans) (UniProt Q09312).
T1 sequence (looked up): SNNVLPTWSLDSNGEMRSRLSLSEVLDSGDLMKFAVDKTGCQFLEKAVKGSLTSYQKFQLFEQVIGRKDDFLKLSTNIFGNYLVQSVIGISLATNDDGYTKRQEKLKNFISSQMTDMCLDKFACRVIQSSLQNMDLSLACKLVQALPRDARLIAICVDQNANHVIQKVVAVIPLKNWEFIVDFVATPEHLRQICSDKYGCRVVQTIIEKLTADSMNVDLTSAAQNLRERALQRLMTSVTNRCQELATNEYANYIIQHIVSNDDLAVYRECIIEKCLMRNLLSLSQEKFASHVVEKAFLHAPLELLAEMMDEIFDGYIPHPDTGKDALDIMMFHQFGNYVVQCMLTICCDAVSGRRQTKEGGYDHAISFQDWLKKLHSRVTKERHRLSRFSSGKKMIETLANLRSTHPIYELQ
Description: EMSA. The conditions noted are these: EMSA: 5 nM RNA, 10 mM HEPES pH 7.4, 75 mM NaCl, 0.01% Tween 20, 0.1 mg/ml BSA, 0.1 mg/ml yeast tRNA, 2 mM DTT, 4 C overnight, recombinant protein, residues 164-575, protein details: His-SUMO, removed by TEV, label: 3'-Cy5.

The target in data set [2] is T2, FBF-2 RBD+CT (Caenorhabditis elegans) (UniProt Q09312).
T2 sequence (looked up): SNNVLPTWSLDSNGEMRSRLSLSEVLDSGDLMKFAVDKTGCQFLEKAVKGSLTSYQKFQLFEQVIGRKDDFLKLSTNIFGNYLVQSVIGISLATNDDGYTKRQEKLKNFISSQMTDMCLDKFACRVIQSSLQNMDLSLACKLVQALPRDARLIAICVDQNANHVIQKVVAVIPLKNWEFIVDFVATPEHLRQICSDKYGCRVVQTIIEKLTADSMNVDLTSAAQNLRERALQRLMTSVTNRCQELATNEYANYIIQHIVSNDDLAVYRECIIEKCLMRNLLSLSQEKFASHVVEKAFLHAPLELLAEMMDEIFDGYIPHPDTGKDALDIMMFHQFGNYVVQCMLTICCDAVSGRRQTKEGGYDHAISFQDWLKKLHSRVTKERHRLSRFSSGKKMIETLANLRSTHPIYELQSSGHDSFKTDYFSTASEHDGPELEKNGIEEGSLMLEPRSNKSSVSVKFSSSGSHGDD
Briefly: EMSA. The conditions noted are these: EMSA: 5 nM RNA, 10 mM HEPES pH 7.4, 75 mM NaCl, 0.01% Tween 20, 0.1 mg/ml BSA, 0.1 mg/ml yeast tRNA, 2 mM DTT, 4 C overnight, recombinant protein, residues 164-632, protein details: His6-SUMO, removed by Ulp1, label: 3'-Cy5. For orientation: In EMSA bound probe runs differently from free probe, usually more slowly.

In data set [3] the test system is FBF-2 RBD + LST-1 19-98 S26C. Briefly: FRET. The following applies: 2 uM FBF-2 RBD, lower FRET than S74C (geometry, not affinity); recombinant protein; protein details: His-SUMO, removed by TEV,Cy5-maleimide on C26; label: 5'-Cy3.
Data set [4] concerns FBF-2 RBD+CT + LST-1 19-50 (PIM-A). Description: EMSA. The following applies: 150 uM LST-1 19-50; EMSA: 5 nM RNA, 10 mM HEPES pH 7.4, 75 mM NaCl, 0.01% Tween 20, 0.1 mg/ml BSA, 0.1 mg/ml yeast tRNA, 2 mM DTT, 4 C overnight; recombinant protein; label: ….
Data set [5] relates to FBF-2 RBD+CT + LST-1 67-98 (PIM-B). Briefly: EMSA. The conditions noted are these: 50 uM LST-1 67-98; EMSA: 5 nM RNA, 10 mM HEPES pH 7.4, 75 mM NaCl, 0.01% Tween 20, 0.1 mg/ml BSA, 0.1 mg/ml yeast tRNA, 2 mM DTT, 4 C overnight; recombinant protein; label: ….
The target in data set [6] is T3, FBF-2 RBD+CT L610A (Caenorhabditis elegans) (UniProt Q09312).
T3 sequence (looked up): T2 sequence (looked up) with L447A
Description: EMSA. The following applies: EMSA: 5 nM RNA, 10 mM HEPES pH 7.4, 75 mM NaCl, 0.01% Tween 20, 0.1 mg/ml BSA, 0.1 mg/ml yeast tRNA, 2 mM DTT, 4 C overnight; recombinant protein; residues 164-632; label: 3'-Cy5.

As to “AUCAACAGCCAUACAUCAACAUGCCAUUU [FBEam-FBEa*m]”, the Kd in data set [1] (apparent Kd) is > 2500 nM.
Consider “AUCAACAGCCAUACAUCAUGUUGCCAUUU [FBEam-FBEa*]”, for which the Kd in data set [1] (apparent Kd, Hill fit) was 323 nM; in data set [2] (apparent Kd) it was > 5000 nM.
On to “AUCAUGUGCCAUACAUCAUGUUGCCAUUU [gld-1 FBEa-FBEa* (FRET)]”, for which, in data set [3], the binding result is “binds”.
Consider AUCAUGUUGCCAUUU [gld-1 FBEa* (EMSA)], for which the Kd in data set [1] is 427 nM; in data set [2], > 2500 nM; in data set [4], > 2500 nM; in data set [5], 300 nM; in data set [6], 385 nM.
